From US20220334130A1
These are yes or no findings as the source states them, for the method shown. Binding seen in cells or lysates may run through a third protein. Some results given as binding are weak or reduced against the parent protein; the word gives no strength.

By UniProt entry, the sequences of proteins in these tests, tags left out.
UniProt Q01727: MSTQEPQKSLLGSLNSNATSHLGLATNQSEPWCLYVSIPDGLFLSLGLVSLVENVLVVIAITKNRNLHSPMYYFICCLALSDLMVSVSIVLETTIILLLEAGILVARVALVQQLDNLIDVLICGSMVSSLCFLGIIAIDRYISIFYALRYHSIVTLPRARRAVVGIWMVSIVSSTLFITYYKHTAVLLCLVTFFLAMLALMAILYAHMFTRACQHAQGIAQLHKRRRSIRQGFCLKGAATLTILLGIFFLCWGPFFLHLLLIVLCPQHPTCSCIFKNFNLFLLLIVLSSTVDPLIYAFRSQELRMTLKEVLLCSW

Biological target: T1, protein FAM86A (family with sequence similarity 86, member A) (mouse (murine melanoma B16F10 cells; Table 1 lists the gene FAM86 under Mus musculus)) (UniProt Q3UZW7)
T1 sequence: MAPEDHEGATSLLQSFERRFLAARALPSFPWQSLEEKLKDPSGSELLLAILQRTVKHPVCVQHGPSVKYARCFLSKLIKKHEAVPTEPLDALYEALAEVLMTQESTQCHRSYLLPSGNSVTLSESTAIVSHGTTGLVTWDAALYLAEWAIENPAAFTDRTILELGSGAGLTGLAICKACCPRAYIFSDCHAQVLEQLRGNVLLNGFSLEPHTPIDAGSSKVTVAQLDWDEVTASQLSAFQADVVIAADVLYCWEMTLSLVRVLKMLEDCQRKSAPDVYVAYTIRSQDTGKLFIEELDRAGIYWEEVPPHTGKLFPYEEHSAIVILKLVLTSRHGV
Assay: co-immunoprecipitation with anti-MC1R antibody and protein A/G-agarose beads from B16F10 cell lysate, SDS-PAGE

MC1R protein (melanocortin 1 receptor) (from UniProt Q01727 1-315)
binding: binds
